Experimental data as given in patent US20120202793A1, “RHO KINASE INHIBITORS” (priority 2009, published 2012).
Some entries share one result that the patent states for a list of compounds.

Test system: ROCK2
Experiment: Inhibition of phosphorylation of S6 Long Peptide by ROCK1 and ROCK2 (33P filter assay), selective inhibition of ROCK2
Assay type: biochemical
Conditions: 10 uM ATP, 30 uM S6 Long Peptide; FIG. 10
Method: Filtration was done in 96 well filter plates containing phosphocellulose cation exchange paper (Millipore, Cat#MAPHNOBIO).
The reaction was incubated for 40 minutes at room temperature and stopped with 25 ul 3% phosphoric acid. Reaction was then transferred to a filter plate wet with 75 mM phosphoric acid. The plate was then washed three times with 75 mM phosphoric acid and once with methanol. […] IC50 values were determined using Graphpad Prism.

## CC(C)NC(=O)COc1cccc(-c2nc(Nc3ccc4[nH]ncc4c3)c3ccccc3n2)c1 [Example 82, 2-(3-(4-(1H-indazol-5-ylamino)quinazolin-2-yl)phenoxy)-N-isopropylacetamide]
  selectivity for ROCK2 with respect to ROCK1: greater than 100 fold
